From the supplement of paper PMC10398353
“And” between values parts separate entries of the source, which are not always exact repeats. Identical values can stand only once. Counter-ions that a name gives are not always drawn. ± gives the standard deviation of the averaged measurements. This is one part of the list. The data scatter; read single values as rough.

test system: Salmonella enterica serovar Typhimurium ST313 D23580; test: normalized bacterial growth (OD600 20 h minus 0 h, interquartile-mean normalized) (fraction of plate interquartile mean); higher = more bacterial growth (less inhibition); details: LPM (pH 5.8, low phosphate, low Mg2+), concentration: 10 µM, temperature: 37 °C

SMILES	normalized bacterial growth
CC(=O)C1=C(O)C=C2Oc3c(C(C)=O)c(O)c(C)c(O)c3[C@]2(C)C1=O	1.02
O=C(CCc1ccc(O)cc1)c1c(O)cc(O)cc1O	0.94
CC1(C)C2CCC1(C)C(O)C2 (stereo not given)	1.01
Oc1c(Cl)cc(Cl)c(Cl)c1Cc1c(O)c(Cl)cc(Cl)c1Cl	0.135
Cc1c(N(C)C)c(=O)n(-c2ccccc2)n1C	0.85
CCCCC[C@H](O)/C=C/C1=C(CCCCCCC(=O)O)C(=O)CC1	0.446
CCCc1c(-c2ccc(O)cc2)nn(-c2ccc(O)cc2)c1-c1ccc(O)cc1 ["1,3,5-tris(4-hydroxyphenyl)-4-propyl-1H-pyrazole"]	0.753
COc1ccc(/C=C/C(=O)Nc2ccccc2C(=O)O)cc1OC [Tranilast]	1.29
CC(=O)N1CCCC1C(=O)O (stereo not given)	0.895
CCOC(=O)C1=C(COCCN)NC(C)=C(C(=O)OC)C1c1ccccc1Cl (stereo not given)	0.902
Oc1ccc(/C=C/c2cc(O)cc(O)c2)cc1	0.926
CCCCCCCCCCCCCCC(C(=O)O)C(O)(CC(=O)OC)C(=O)O (stereo not given)	1.79
COc1ccccc1N1CCN(CCCCN2C(=O)c3ccccc3C2=O)CC1 [NAN-190 hydrobromide]	0.949
CN1[C@@H]2CC[C@H]1C[C@@H](OC(=O)c1c[nH]c3ccccc13)C2 [Tropisetron HCl]	0.826
Cc1cccc(C)c1OCC(C)N (stereo not given) [Mexiletene hydrochloride]	1.07
NC[C@@H]1O[C@H](O[C@H]2[C@@H](O)[C@H](O[C@@H]3[C@@H](O)[C@H](N)C[C@H](N)[C@H]3O[C@H]3O[C@H](CO)[C@@H](O)[C@H](O)[C@H]3N)O[C@@H]2CO)[C@H](N)[C@@H](O)[C@@H]1O	0.91
NC[C@@H]1O[C@H](O[C@H]2[C@@H](O)[C@H](O[C@@H]3[C@@H](O)[C@H](N)C[C@H](N)[C@H]3O[C@H]3O[C@H](CO)[C@@H](O)[C@H](O)[C@H]3N)O[C@@H]2CO)[C@H](N)[C@@H](O)[C@@H]1O [Paromomycin sulfate]	0.9432 ± 0.0075
COc1cc(C)c2c(c1C=O)Oc1c(c(C)c(O)c3c1C(O)OC3=O)OC2=O (stereo not given)	0.99
CC[C@]1(O)C[C@H]2CN(CCc3c([nH]c4ccccc34)[C@@](C(=O)OC)(c3cc4c(cc3OC)N(C=O)[C@H]3[C@@](O)(C(=O)OC)[C@H](OC(C)=O)[C@]5(CC)C=CCN6CC[C@]43[C@@H]65)C2)C1 [Vincristine sulfate]	0.922
CC[C@]1(O)C[C@H]2CN(CCc3c([nH]c4ccccc34)[C@@](C(=O)OC)(c3cc4c(cc3OC)N(C=O)[C@H]3[C@@](O)(C(=O)OC)[C@H](OC(C)=O)[C@]5(CC)C=CCN6CC[C@]43[C@@H]65)C2)C1	0.748 and 0.788
COc1ccccc1OCC(O)CO (stereo not given)	0.876
Cc1cc(=O)[nH]c(=S)[nH]1	1.16
CC(=O)[C@H]1CC[C@H]2[C@@H]3C=CC4=CC(=O)CC[C@@]4(C)[C@@H]3CC[C@]12C [Dydrogesterone]	0.813

SMILES	normalized bacterial growth
NC(N)=NC(N)=Nc1cccc(Cl)c1 [1-(m-Chlorophenyl)-biguanide hydrochloride]	1
C[C@H]1O[C@@H](O[C@H]2[C@@H](O)C[C@H](O[C@H]3[C@@H](O)C[C@H](O[C@H]4CC[C@@]5(C)[C@H](CC[C@@H]6[C@@H]5C[C@@H](O)[C@]5(C)[C@@H](C7=CC(=O)OC7)CC[C@]65O)C4)O[C@@H]3C)O[C@@H]2C)C[C@H](O)[C@@H]1O	0.648
C[C@H]1O[C@@H](O[C@H]2[C@@H](O)C[C@H](O[C@H]3[C@@H](O)C[C@H](O[C@H]4CC[C@@]5(C)[C@H](CC[C@@H]6[C@@H]5C[C@@H](O)[C@]5(C)[C@@H](C7=CC(=O)OC7)CC[C@]65O)C4)O[C@@H]3C)O[C@@H]2C)C[C@H](O)[C@@H]1O [Digoxin]	0.711
COc1cc([S+](C)[O-])ccc1-c1nc2cccnc2[nH]1 (stereo not given) [Sulmazole]	1.14
O=c1ccc2cc(O)c(O)cc2o1	0.945
C[C@H](CCC(=O)O)[C@H]1CC[C@H]2[C@@H]3[C@H](O)C[C@@H]4C[C@H](O)CC[C@]4(C)[C@H]3C[C@H](O)[C@]12C	0.838
CC(=O)OC1CCC2(C)C(=CCC3C2CCC2(C)C(C(C)CCCC(C)C)CCC32)C1 (stereo not given)	1.15
O=C(OCC(O)CO)c1ccccc1Nc1ccnc2cc(Cl)ccc12 (stereo not given)	0.987
O=C(OCC(O)CO)c1ccccc1Nc1ccnc2cc(Cl)ccc12 (stereo not given) [Glafenine hydrochloride]	0.904
CC(C(=O)O)c1ccc(-c2ccccc2)c(F)c1 (stereo not given)	0.567
Cc1cc(O)c2c(c1)C(=O)c1cccc(O)c1C2=O	0.781
NC(=O)c1cn(Cc2c(F)cccc2F)nn1 [Rufinamide]	1.1
CC[N+](CC)(CC)CCOc1ccc(/C=C/c2ccccc2)cc1	0.859
Nc1nc2[nH]cnc2c(=S)[nH]1	0.51
C/C1=C2/[N-][C@H]([C@H](CC(N)=O)[C@@]2(C)CCC(=O)NC[C@@H](C)OP(=O)([O-])O[C@H]2[C@@H](O)[C@@H](n3cnc4cc(C)c(C)cc43)O[C@@H]2CO)[C@]2(C)N=C(/C(C)=C3N=C(/C=C4N=C1[C@@H](CCC(N)=O)C\4(C)C)[C@@H](CCC(N)=O)[C@]\3(C)CC(N)=O)[C@@H](CCC(N)=O)[C@]2(C)CC(N)=O.[CH2-][C@H]1O[C@H](n2cnc3c(N)ncnc32)[C@@H](O)[C@H]1O.[Co+3]	0.954
CC(Oc1ccc(Oc2cnc3ccc(Cl)cc3n2)cc1)C(=O)O (stereo not given)	1.17
CN(C)C(=O)C(CCN1CCC(O)(c2ccc(Cl)cc2)CC1)(c1ccccc1)c1ccccc1 [Loperamide hydrochloride]	0.927
CC(C(=O)O)c1ccc2c(c1)[nH]c1ccc(Cl)cc12 (stereo not given)	1.03
CCCCc1cc2ccccc2c(OCCN(C)C)n1 [Dimethisoquin hydrochloride]	0.74
Cc1cccc(C)c1NC(=O)C(C)N (stereo not given) [Tocainide hydrochloride]	1.01
O=C(O)C1CCCNC1 (stereo not given) [()-Nipecotic acid]	1.19
O=C1c2c(O)cccc2C([C@@H]2O[C@H](CO)[C@@H](O)[C@H](O)[C@H]2O)c2cc(CO)cc(O)c21 (stereo not given in full)	1.51
